Assay results from paper PMC3807682.

System: MEF2-HA + TBP (TATA binding protein)
Test: EMSA
Conditions: poly(dI-dC), 10 mM Tris pH 7.6, 75 mM KCl, 1 mM DTT, 2.5 mM MgCl2, 5% glycerol, 1 ug poly(dI-dC), 2 fmol dsDNA, 1-2 ug nuclear extract in 20 ul, 10 min, room temperature, protein in an extract, protein details: HA

Sequence: TTGTCTGGGACTGAGGTATAAAATTCTCACCATCTCAACG (double strand) [mtkpro-40mer-deltaM]
- binding result (both complexes eliminated): no binding

Sequence: TTGTCTGGGACTGAGCTATAAAAGCCTCACCATCTCAACG (double strand) [mtkpro-40mer (Mtk core promoter, MEF2-TATA)]
- binding result (complex 1, eliminated by preincubation with anti-HA or anti-TBP): binds

Construct, isoform or probe ends are uncertain for at least one entry. Results from cells or extracts need not show a direct contact. No signal at the amounts used counts as a negative.
